Among the data in US20260070975A1 are binding values, retold here.

Results are given in words; binding and its absence hold for the method and conditions named. Binding calls can cover weak binding; strength is not graded here.

B1: hSR1-1 (antibody, human IgG1, kappa, V domains shown)
VH: QVQLVQSGAEVKKPGASVKVSCKASGYTFTSYNMHWVRQAPGQGLEWMGVIYSGNGDTSYAQKFQGRVTMTADTSTSTAYMELSSLRSEDTAVYYCARERDTRFGNWGQGTLVTVSS
VL: DIQLTQSPSSLSASVGDRATITCRASESVDIYGNSFMHWYQQKPGKAPKLLIYLASNLESGVPSRFSGSGSGTDFTLTISSVQPEDFATYYCQQNNEDPYTFGQGTKLEIKR
B2: hSR1-4 (antibody, human IgG1, kappa, V domains shown)
VH: QVQLVQSGAEVKKPGASVKMSCKASGYTFTSYNMHWVRQAPGQGLEWIGVIYSGNGDTSYAQKFQGRATLTADKSTSTAYMELSSLRSEDTAVYYCARERDTRFGNWGQGTLVTVSS
VL: DIQLTQSPSSLSASVGDRATITCRASESVDIYGNSFMHWYQQKPGKAPKLLIYLASNLESGVPSRFSGSGSGTDFTLTISSVQPEDFATYYCQQNNEDPYTFGQGTKLEIKR
B3: hSR1-6 (antibody, human IgG1, kappa, V domains shown)
VH: QVQLVQSGAEVKKPGASVKMSCKASGYTFTSYNMHWVRQAPGQGLEWIGVIYSGNGDTSYAQKFQGRATLTADTSTSTAYMELSSLRSEDTAVYYCARERDTRFGNWGQGTLVTVSS
VL: DIQLTQSPSSLSASVGDRATITCRASESVDIYGNSFMHWYQQKPGKAPKLLIYLASNLESGVPSRFSGSGSRTDFTLTISSVQPEDFATYYCQQNNEDPYTFGQGTKLEIKR
B4: hSR1-5 (antibody, human IgG1, kappa, V domains shown)
VH: QVQLVQSGAEVKKPGASVKVSCKASGYTFTSYNMHWVRQAPGQGLEWMGVIYSGNGDTSYAQKFQGRVTMTADTSTSTAYMELSSLRSEDTAVYYCARERDTRFGNWGQGTLVTVSS
VL: DIQLTQSPSSLSASVGDRATITCRASESVDIYGNSFMHWYQQKPGKAPKLLIYLASNLESGVPSRFSGSGSRTDFTLTISSVQPEDFATYYCQQNNEDPYTFGQGTKLEIKR
B5: hSR1-3 (antibody, human IgG1, kappa, V domains shown)
VH: QVQLVQSGAEVKKPGASVKVSCKASGYTFTSYNMHWVRQAPGQGLEWMGVIYSGNGDTSYAQKFQGRVTMTADKSTSTAYMELSSLRSEDTAVYYCARERDTRFGNWGQGTLVTVSS
VL: DIQLTQSPSSLSASVGDRATITCRASESVDIYGNSFMHWYQQKPGKAPKLLIYLASNLESGVPSRFSGSGSGTDFTLTISSVQPEDFATYYCQQNNEDPYTFGQGTKLEIKR
B6: hSR1-2 (antibody, human IgG1, kappa, V domains shown)
VH: QVQLVQSGAEVKKPGASVKMSCKASGYTFTSYNMHWVRQAPGQGLEWIGVIYSGNGDTSYAQKFQGRATLTADTSTSTAYMELSSLRSEDTAVYYCARERDTRFGNWGQGTLVTVSS
VL: DIQLTQSPSSLSASVGDRATITCRASESVDIYGNSFMHWYQQKPGKAPKLLIYLASNLESGVPSRFSGSGSGTDFTLTISSVQPEDFATYYCQQNNEDPYTFGQGTKLEIKR

The test concerns the target His-tagged cynomolgus c-Kit (cynomolgus). The test is described as follows: ELISA, His-tagged antigen coated.
Consider B1, for which the binding result was “binds”.

For the molecule B2, the binding result is on record as “binds”.

As for B3, the binding result is “binds”.

Take B4: the binding entry is given as “binds”.

For B5, the binding entry is recorded as “binds”.

In the case of B6, the binding result is given as “binds”.
